The values that follow come from PMC5806898.

Sequences of proteins named here, by UniProt entry; tags and fusion partners are left off. Residues count along the entry.
UniProt P11717, residues 41-2491: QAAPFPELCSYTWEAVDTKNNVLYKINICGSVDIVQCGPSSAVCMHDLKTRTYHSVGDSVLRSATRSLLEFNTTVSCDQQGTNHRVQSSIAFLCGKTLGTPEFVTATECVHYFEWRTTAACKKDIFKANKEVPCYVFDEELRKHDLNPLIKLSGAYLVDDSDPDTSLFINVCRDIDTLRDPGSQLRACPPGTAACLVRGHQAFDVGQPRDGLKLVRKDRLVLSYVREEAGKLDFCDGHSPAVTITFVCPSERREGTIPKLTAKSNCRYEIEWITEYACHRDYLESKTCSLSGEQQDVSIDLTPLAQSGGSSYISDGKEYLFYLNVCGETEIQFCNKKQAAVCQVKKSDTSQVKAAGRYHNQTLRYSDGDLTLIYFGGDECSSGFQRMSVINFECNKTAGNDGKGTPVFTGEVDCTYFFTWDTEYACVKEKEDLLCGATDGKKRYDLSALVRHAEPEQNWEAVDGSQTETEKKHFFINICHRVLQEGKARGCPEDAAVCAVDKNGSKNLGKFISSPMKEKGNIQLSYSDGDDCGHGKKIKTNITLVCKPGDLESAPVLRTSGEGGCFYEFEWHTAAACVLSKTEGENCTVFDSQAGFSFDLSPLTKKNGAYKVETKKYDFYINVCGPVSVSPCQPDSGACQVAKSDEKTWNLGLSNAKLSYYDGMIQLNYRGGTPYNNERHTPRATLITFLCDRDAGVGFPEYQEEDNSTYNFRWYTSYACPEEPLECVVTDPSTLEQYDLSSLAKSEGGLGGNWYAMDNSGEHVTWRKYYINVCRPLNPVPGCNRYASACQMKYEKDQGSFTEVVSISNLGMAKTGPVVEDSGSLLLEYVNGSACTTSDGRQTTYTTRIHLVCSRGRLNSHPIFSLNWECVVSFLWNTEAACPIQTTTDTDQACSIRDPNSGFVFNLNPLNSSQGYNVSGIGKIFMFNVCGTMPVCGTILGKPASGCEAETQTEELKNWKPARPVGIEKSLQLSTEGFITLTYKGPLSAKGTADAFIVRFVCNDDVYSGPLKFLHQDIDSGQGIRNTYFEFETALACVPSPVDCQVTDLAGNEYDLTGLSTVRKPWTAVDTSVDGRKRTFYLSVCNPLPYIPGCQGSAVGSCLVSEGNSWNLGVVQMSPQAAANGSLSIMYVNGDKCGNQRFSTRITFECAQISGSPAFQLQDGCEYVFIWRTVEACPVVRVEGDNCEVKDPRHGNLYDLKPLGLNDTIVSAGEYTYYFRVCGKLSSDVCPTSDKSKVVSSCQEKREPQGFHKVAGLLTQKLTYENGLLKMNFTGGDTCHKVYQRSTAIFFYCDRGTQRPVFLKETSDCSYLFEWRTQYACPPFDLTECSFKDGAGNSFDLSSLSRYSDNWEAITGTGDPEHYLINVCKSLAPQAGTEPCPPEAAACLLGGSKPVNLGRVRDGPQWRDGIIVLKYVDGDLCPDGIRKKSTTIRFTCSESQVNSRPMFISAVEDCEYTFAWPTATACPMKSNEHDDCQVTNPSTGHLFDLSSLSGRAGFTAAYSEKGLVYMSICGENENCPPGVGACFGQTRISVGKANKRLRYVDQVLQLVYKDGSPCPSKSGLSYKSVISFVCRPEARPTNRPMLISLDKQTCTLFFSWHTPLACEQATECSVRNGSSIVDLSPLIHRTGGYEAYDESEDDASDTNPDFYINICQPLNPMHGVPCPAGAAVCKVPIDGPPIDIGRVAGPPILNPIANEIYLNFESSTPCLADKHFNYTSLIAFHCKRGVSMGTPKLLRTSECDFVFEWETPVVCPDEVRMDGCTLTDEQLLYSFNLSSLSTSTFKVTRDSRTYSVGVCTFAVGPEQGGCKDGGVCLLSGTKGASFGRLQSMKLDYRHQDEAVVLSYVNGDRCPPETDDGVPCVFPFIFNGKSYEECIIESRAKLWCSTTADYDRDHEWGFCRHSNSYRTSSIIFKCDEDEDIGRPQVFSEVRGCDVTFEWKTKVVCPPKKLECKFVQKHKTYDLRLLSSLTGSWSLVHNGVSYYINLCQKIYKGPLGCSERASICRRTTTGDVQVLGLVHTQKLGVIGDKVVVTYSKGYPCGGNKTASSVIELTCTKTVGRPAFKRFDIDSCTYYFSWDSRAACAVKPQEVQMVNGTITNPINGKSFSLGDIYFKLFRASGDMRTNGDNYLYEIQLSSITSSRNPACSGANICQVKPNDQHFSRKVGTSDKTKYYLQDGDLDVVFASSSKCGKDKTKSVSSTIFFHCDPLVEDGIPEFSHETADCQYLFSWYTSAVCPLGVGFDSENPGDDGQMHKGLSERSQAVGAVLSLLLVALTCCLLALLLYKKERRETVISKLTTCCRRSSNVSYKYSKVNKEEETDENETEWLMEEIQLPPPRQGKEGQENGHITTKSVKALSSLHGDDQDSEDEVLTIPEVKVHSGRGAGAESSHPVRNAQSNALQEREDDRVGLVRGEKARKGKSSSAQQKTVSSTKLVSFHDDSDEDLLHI

Results are given in words; binding and its absence hold for the method and conditions named. Binding seen in cells or lysates may run through a third protein. These calls come from enrichment with a bait or labelling near it, and not all partners need be listed. Sequences can lack the tags named with a protein.

The test addresses T1, GST followed by the N-terminal 709 residues of SPG15 (UniProt Q68DK2).
T1 sequence: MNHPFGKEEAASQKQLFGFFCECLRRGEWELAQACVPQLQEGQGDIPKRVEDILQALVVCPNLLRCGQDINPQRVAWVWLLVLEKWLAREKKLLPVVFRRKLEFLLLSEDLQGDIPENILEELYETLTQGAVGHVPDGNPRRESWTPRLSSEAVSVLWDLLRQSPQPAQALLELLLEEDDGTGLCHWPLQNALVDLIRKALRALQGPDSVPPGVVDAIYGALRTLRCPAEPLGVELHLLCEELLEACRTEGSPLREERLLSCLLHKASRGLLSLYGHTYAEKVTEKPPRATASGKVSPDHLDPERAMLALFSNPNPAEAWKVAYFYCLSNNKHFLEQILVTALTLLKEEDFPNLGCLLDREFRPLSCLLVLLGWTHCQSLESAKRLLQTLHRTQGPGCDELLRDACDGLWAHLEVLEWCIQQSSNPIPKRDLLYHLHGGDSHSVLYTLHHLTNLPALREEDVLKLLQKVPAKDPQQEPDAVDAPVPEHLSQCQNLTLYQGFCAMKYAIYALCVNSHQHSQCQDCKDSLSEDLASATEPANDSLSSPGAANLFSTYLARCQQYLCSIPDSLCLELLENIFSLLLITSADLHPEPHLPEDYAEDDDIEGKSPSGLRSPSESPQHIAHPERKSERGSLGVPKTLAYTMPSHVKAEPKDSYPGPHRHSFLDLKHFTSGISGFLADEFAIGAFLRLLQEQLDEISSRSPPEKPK
Put plainly: affinity purification with mass spectrometry; GST_SPG15N1–709 as bait in SH-SY5Y cell lysate (PBS with 0.5% Triton X-100, pH 7.4), recovered with glutathione Sepharose 4B; label-free quantification against GST-only pulldowns, in triplicate; only the target purified.

In the case of “cation-independent mannose 6-phosphate receptor (from UniProt P11717 41-2491)”, the binding result is “binds”.
